PubChem BioAssay AID1224831 – NIAID, 2016
Aim: 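Genes that support or restrain LPS-induced TNF-alpha reporter activity in macrophage-like cells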 (follow-up of hits). System: human THP-1 B5 monocytic leukaemia cells carrying a TNF promoter luciferase reporter, made macrophage-like with PMA. Knock-down reagent: single siRNA against human genes, 50 nM. Duration: about 68 h of knock-down, then 4 h LPS. Challenge: LPS (Salmonella minnesota, TLR-grade) at 10 ng/ml for 4 h; PMA 5 ng/ml present during knock-down. Measured: 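TNF promoter reporter read as dual luciferase ratio after 4 h LPS, normalised per plate to its median, given as replicate mean robust z-score per siRNA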. Direction: TNF reporter z-score: higher = stronger LPS-induced TNF reporter signal. Rule for the call: 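Two-sided call: reduced or raised TNF reporter signal counts as active once mean z reaches about -1 or below, or about 1.5 or above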. Meaning of the calls: active = changed TNF reporter (either direction); inactive = little change.
This is a random part of about 3,500 reagents tested. 731 of them (21%) were called active. 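Active means either lowered or raised reporter signal; the gene-median score did not drive the per-siRNA calls.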 Entries without a mark were called inactive. The numbers tell different reagents against one gene apart. Not all columns of the deposit are shown.

TNF reporter z-score, replicate mean, by gene symbol and reagent
CHST12 (carbohydrate sulfotransferase 12): #1 0.89; #2 -0.65; #3 0.74; #4 -0.76; #5 2.93 (active); #6 -0.96
HRH2 (histamine receptor H2): #1 0.73; #2 -0.98; #3 0.36; #4 0.58; #5 0.44; #6 0.66
UBALD1 (UBA like domain containing 1): #1 1.05; #2 -0.15; #3 1.6 (active); #4 -0.17; #5 1.8 (active); #6 0.01
ABI1 (abl interactor 1): #1 -0.22; #2 0.22; #3 0.33; #4 -0.75; #5 0.91; #6 -0.79
E4F1 (E4F transcription factor 1): #1 -0.49; #2 -0.11; #3 1.02; #4 -1.08 (active); #5 0.68; #6 1.04
DIRAS3 (DIRAS family GTPase 3): #1 -0.21; #2 -0.31; #3 -0.34; #4 -1.44 (active); #5 3.27 (active); #6 -0.63
DGAT1 (diacylglycerol O-acyltransferase 1): #1 1.21; #2 -0.44; #3 -0.57; #4 -0.32; #5 4.32 (active); #6 -0.67
MICOS13: #1 0.6; #2 -0.74; #3 0.06; #4 0.24; #5 -0.64; #6 -0.5
FBXL16 (F-box and leucine rich repeat protein 16): #1 1.03; #2 0.7; #3 0.15; #4 -0.36; #5 -0.06; #6 2.5 (active)
DESI1 (desumoylating isopeptidase 1): #1 -1.12 (active); #2 1.56 (active); #3 1.32; #4 0.8; #5 0.21; #6 2.22 (active)

Entries above whose gene name begins with F or f (6):
TNF reporter z-score, replicate mean, by gene symbol and reagent
FBXL16 (F-box and leucine rich repeat protein 16): #1 1.03; #2 0.7; #3 0.15; #4 -0.36; #5 -0.06; #6 2.5 (active)

The listing continues.
TNF reporter z-score, replicate mean, by gene symbol and reagent
H1-8 (H1.8 linker histone): #1 -0.72; #2 1.19; #3 -1.34 (active); #4 0.88; #5 2.9 (active); #6 -0.3
GRIPAP1 (GRIP1 associated protein 1): #1 2 (active); #2 0.44; #3 0.35; #4 2.91 (active); #5 -0.09; #6 0.58
PXN (paxillin): #1 0.41; #2 -0.14; #3 0.22; #4 2.67 (active); #5 -0.33; #6 -1.42 (active)
FPGS (folylpolyglutamate synthase): #1 -0.49; #2 0.86; #3 0.12; #4 0.01; #5 -0.87; #6 0.31
ICAM2 (intercellular adhesion molecule 2): #1 1.28; #2 1.18; #3 -0.33; #4 -1.62 (active); #5 -0.15; #6 -0.24
MSRB1 (methionine sulfoxide reductase B1): #1 -0.75; #2 -0.36; #3 -0.86; #4 0.24; #5 -0.47; #6 0.07
ORM2 (orosomucoid 2): #1 0.28; #2 -0.24; #3 1.88 (active); #4 -0.14; #5 0.48; #6 -0.92
ZNHIT3 (zinc finger HIT-type containing 3): #1 -1.09 (active); #2 -0.84; #3 1.12; #4 0.38; #5 -1.31 (active); #6 4.05 (active)
